According to the supplement of paper PMC8104966:
The other results are listed elsewhere or left out. Repeats in this data set agree poorly, so a single value says little.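 U2OS cells carrying ACE2 were mixed with U2OS cells carrying full-length spike, and fusion was scored by imaging as the share of nuclei showing both cell types' fluorescent markers. A compound counts as an inhibitory hit when it is non-toxic and its fusion z-score falls below -3, meaning more than three standard deviations below the plate's DMSO wells.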

Tested on: U2OS ACE2 x SARS-CoV-2 spike co-culture
Assay: cell-cell fusion (fraction fused) z-score vs plate DMSO control; higher = more fusion
Details: 30 µM; 5 h; toxicity class: non-toxic, passed QC

Row | Compound | cell-cell fusion (z-score)
1 | CC(=O)O[C@H]1CC[C@]2(C)C3=CC(=O)[C@@]4(C)C(C[C@@H]5OC6(OCC(C)CC6Br)[C@@H](C)[C@@H]54)C3CC[C@H]2C1 (stereo partly drawn) [3beta-ACETOXY-23-BROMO-ISOALLOSPIROST-9 (11)-ENE-12-ONE] | inactive: 2.92
2 | Nc1nc2ccc(OC(F)(F)F)cc2s1 [Riluzole] | inactive: 1.61
3 | CCCCN1CCCC[C@H]1C(=O)Nc1c(C)cccc1C.Cl [Levobupivacaine] | inactive: 2.09
4 | CCCCN1CCCC[C@H]1C(=O)Nc1c(C)cccc1C.Cl [Levobupivacaine HCl] | inactive: 0.27
5 | O=C(O)/C=C\C(=O)O.c1cnc(N2CCN(Cc3ccc4c(c3)OCO4)CC2)nc1 [Piribedil maleate] | inactive: 1.47
6 | CC1(C)CNc2cc(NC(=O)c3cccnc3NCc3ccncc3)ccc21.O=P(O)(O)O.O=P(O)(O)O [Motesanib Diphosphate] | inactive: 2.99
7 | CC1(C)CNc2cc(NC(=O)c3cccnc3NCc3ccncc3)ccc21.O=P(O)(O)O.O=P(O)(O)O [Motesanib Diphosphate (AMG-706)] | inactive: 2.37
8 | CCCCCCN(CCCCCC)C(=O)Cc1c(-c2ccc(F)cc2)[nH]c2ccccc12 [N,N-Dihexyl-2-(4-fluorophenyl)indole-3-acetamide] | inactive: 3.18
9 | Cl.O=C(c1ccc(OCCN2CCCCC2)cc1)c1c(-c2ccc(O)cc2)sc2cc(O)ccc12 | inactive: 5.37
10 | Cl.O=C(c1ccc(OCCN2CCCCC2)cc1)c1c(-c2ccc(O)cc2)sc2cc(O)ccc12 [Raloxifene hydrochloride] | inactive: 4.68
11 | N#C/C(=C\c1ccc(O)c(O)c1)C(=O)NCc1ccccc1 [AG-490 (Tyrphostin B42)] | inactive: 1.04
12 | N[C@@H](Cc1ccc(F)cc1)C(=O)O [p-Fluoro-L-phenylalanine] | inactive: 4.35
13 | OB1OCc2cc(F)ccc21 [Tavaborole] | inactive: 1.62
14 | COc1ccc(/C=C/c2cc(O)cc(O)c2)cc1 | inactive: 1.5
15 | O=C(Nc1ccncc1)c1cc([N+](=O)[O-])ccc1Cl | inactive: 0.596
16 | COC(=O)C1=C(C)NC(C)=C(C(=O)OC(C)C)C1c1cccc2nonc12 (stereo unspecified) [Isradipine] | inactive: 3.76
17 | Oc1c(I)cc(I)c2cccnc12 | inactive: 0.141
18 | O=c1ccc2cc(O)c(O)cc2o1 | inactive: 2.58
19 | NCCCNCCSP(=O)(O)O [Amifostine] | inactive: 1.67
20 | NCCCNCCSP(=O)(O)O | inactive: 2.11
21 | Cc1cc2c(C(C)C)c(O)c(O)c(C=O)c2c(O)c1-c1c(C)cc2c(C(C)C)c(O)c(O)c(C=O)c2c1O [Gossypol] | active: -4.28

Two entries picked at random from those above:
Row | Compound | cell-cell fusion (z-score)
12 | N[C@@H](Cc1ccc(F)cc1)C(=O)O [p-Fluoro-L-phenylalanine] | inactive: 4.35
10 | Cl.O=C(c1ccc(OCCN2CCCCC2)cc1)c1c(-c2ccc(O)cc2)sc2cc(O)ccc12 [Raloxifene hydrochloride] | inactive: 4.68

More entries.

Row | Compound | cell-cell fusion (z-score)
22 | CC(N)[C@H](O)c1ccc(O)c(O)c1 (single isomer, unassigned; (-)) [(-)-alpha-Methylnorepinephrine] | inactive: -1.4
23 | CO[C@H]1CC(O[C@@H]2/C(C)=C/C[C@@H]3C[C@@H](C[C@]4(C=C[C@H](C)[C@@H](C5CCCCC5)O4)O3)OC(=O)[C@@H]3C=C(C)[C@@H](O)[C@H]4OC/C(=C\C=C\[C@@H]2C)[C@]43O)O[C@@H](C)C1O[C@H]1C[C@H](OC)[C@@H](O)[C@H](C)O1 (stereo partly specified) | inactive: 2.66
24 | CN1C[C@H](C(=O)N[C@]2(C)O[C@@]3(O)C4CCCN4C(=O)[C@H](Cc4ccccc4)N3C2=O)C=C2c3cccc4[nH]cc(c34)C[C@H]21.O=C(O)[C@H](O)[C@@H](O)C(=O)O (stereo partly specified) | inactive: 3.32
25 | O=C([O-])CCNC(=O)c1ccc(/N=N/c2ccc(O)c(C(=O)[O-])c2)cc1.[Na+].[Na+] | inactive: 2.8
26 | O=C(O)CSc1nnc(Br)n1-c1ccc(C2CC2)c2ccccc12 [Lesinurad] | inactive: 1.05
27 | COc1ccc2cc([C@H](C)C(=O)O)ccc2c1 [Naproxen] | inactive: 0.773
28 | CC(C)(C)c1[nH]cnc1/C=c1\[nH]c(=O)/c(=C/c2ccccc2)[nH]c1=O [NPI-2358 (Plinabulin)] | inactive: 1.32
29 | CC(=O)N(O)CCCCCNC(=O)CCC(=O)N(O)CCCCCNC(=O)CCC(=O)N(O)CCCCCN.CS(=O)(=O)O [Deferoxamine Mesylate] | inactive: 2.85
30 | CC(=O)N(O)CCCCCNC(=O)CCC(=O)N(O)CCCCCNC(=O)CCC(=O)N(O)CCCCCN.CS(=O)(=O)O | inactive: 1.04
31 | C=CC1=C(C(=O)O)N2C(=O)[C@@H](NC(=O)/C(=N\OCC(=O)O)c3csc(N)n3)[C@H]2SC1 [Cefixime] | inactive: 4.26
32 | CCCCCCCC/C=C\CCCCCCCC(=O)NCc1ccc(O)c(OC)c1 [Olvanil] | inactive: 2.33
33 | Cl.c1ccc2c(CC3=NCCN3)cccc2c1 | inactive: 1.13
34 | N#Cc1cc([N+](=O)[O-])c2sc(C(N)=O)[n+]([O-])c2c1 | inactive: 0.892
35 | Cl.[NH-]c1c[n+](N2CCOCC2)no1 [3-Morpholinosydnonimine hydrochloride] | inactive: 1.9
36 | C#CCCCCCCCCCCCC(O)CC(O)CO (stereo unspecified) | inactive: 1.33
37 | CCOC(=O)CCC(=O)O[C@H]1[C@H](O[C@@H]2[C@@H](C)[C@H](O[C@H]3C[C@@](C)(OC)[C@@H](O)[C@H](C)O3)[C@@H](C)C(=O)O[C@H](CC)[C@@](C)(O)[C@H](O)[C@@H](C)C(=O)[C@H](C)C[C@@]2(C)O)O[C@H](C)C[C@@H]1N(C)C | inactive: 0.948
38 | CN1CCC(=C2c3ccccc3CCc3sccc32)CC1.O=C(O)CC(O)C(=O)O | inactive: 0.169
39 | NCC(CP(=O)(O)O)c1ccc(Cl)cc1 (stereo unspecified) [Phaclofen] | inactive: 1.28
40 | Cl.NC1C=CC=C(C(=O)O)C1 (stereo unspecified) [Gabaculine hydrochloride] | inactive: 1.88
41 | CN1CCN(c2nc3cc(C(F)(F)F)ccc3n3cccc23)CC1.O=C(O)/C=C\C(=O)O | inactive: 3.1
